Paper PMC11623946
Results are given in words; binding and its absence hold for the method and conditions named. Binding seen in cells or lysates may run through a third protein. Some binding calls cover weakened binding; strength is not graded here.

Columns and labels:
[1] = molecular target: T1, ASCL1 (human (endogenous in NCI-H660)), P50553; experiment: co-IP; NCI-H660 lysate (IP Lysis Buffer), 1,000 ug protein, ASCL1 antibody with Protein A+G magnetic beads overnight at 4 C; normal mouse IgG as isotype control; blot for ASCL1 and FOXA2; conditions: remark: other sources report otherwise
T1 chain: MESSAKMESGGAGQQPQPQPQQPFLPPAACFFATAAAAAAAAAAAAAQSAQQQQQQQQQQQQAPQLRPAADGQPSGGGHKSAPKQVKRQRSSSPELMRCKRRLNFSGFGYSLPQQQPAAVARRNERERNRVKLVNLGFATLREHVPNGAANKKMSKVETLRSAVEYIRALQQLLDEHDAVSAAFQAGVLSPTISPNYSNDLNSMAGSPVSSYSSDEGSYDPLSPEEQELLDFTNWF

[2] = molecular target: T1, ASCL1 (human (endogenous in NCI-H660)), …; experiment: proximity ligation; NCI-H660 cells fixed with 4% paraformaldehyde, permeabilised; FOXA2 (rabbit) and ASCL1 (mouse) antibodies, Duolink In Situ Detection Reagents Red; proximity <40 nm; conditions: remark: other sources report otherwise

- binding [1]: binds
- binding [2]: binds
B1: FOXA2, Q9Y261 1-457 (protein)
chain: MLGAVKMEGHEPSDWSSYYAEPEGYSSVSNMNAGLGMNGMNTYMSMSAAAMGSGSGNMSAGSMNMSSYVGAGMSPSLAGMSPGAGAMAGMGGSAGAAGVAGMGPHLSPSLSPLGGQAAGAMGGLAPYANMNSMSPMYGQAGLSRARDPKTYRRSYTHAKPPYSYISLITMAIQQSPNKMLTLSEIYQWIMDLFPFYRQNQQRWQNSIRHSLSFNDCFLKVPRSPDKPGKGSFWTLHPDSGNMFENGCYLRRQKRFKCEKQLALKEAAGAAGSGKKAAAGAQASQAQLGEAAGPASETPAGTESPHSSASPCQEHKRGGLGELKGTPAAALSPPEPAPSPGQQQQAAAHLLGPPHHPGLPPEAHLKPEHHYAFNHPFSINNLMSSEQQHHHSHHHHQPHKMDLKAYEQVMHYPGYGSPMPGSLAMGPVTNKTGLDASPLAADTSYYQGVYSRPIMNSS
